The values that follow come from article doi:10.1101/2022.07.08.499162.

Construct, isoform or probe ends are uncertain for at least one entry. For some of these results: A weaker result is weaker than the reference pair of the same experiment. At least one verdict was read from the data and is not stated in words by the source. Tags and fusion partners may be left off the protein sequences shown.

Data set [1] relates to T1, UPF1-HD WT (human).
T1 sequence (looked up, limits assumed): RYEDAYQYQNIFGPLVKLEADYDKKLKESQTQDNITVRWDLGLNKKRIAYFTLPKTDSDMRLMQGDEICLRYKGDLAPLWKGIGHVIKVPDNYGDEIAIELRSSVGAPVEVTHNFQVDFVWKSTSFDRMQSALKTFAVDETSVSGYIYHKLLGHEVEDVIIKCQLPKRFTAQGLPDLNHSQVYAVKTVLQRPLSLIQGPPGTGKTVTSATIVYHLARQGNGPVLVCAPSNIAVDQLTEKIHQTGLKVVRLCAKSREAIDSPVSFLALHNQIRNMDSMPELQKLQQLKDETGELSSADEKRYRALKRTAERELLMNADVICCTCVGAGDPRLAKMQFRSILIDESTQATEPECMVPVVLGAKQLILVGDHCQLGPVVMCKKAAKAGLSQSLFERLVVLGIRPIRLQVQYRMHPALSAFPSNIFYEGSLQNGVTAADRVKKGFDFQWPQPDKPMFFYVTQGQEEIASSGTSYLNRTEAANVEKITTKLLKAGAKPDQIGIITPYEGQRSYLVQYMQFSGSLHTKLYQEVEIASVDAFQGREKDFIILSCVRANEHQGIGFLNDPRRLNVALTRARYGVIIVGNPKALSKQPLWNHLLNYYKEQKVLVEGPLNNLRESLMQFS
Briefly: fluorescence anisotropy. (Polarisation of emitted light reports the rotation of a fluorescent probe.)

Data set [2] has as its system T1, UPF1-HD WT (human). Briefly: fluorescence anisotropy dissociation. The note with it: prebound, ATP-stimulated dissociation with 2 mM ATP.
Setting [3] is: 1 mM ATP, 2 hr, weaker than with AMP-PNP.

Consider AGCTAGTTGTACGCACAC [18mer_5AF488], for which the binding result in the data set on UPF1-HD WT (human) [1] (1 mM AMP-PNP, 2 hr) was “binds more weakly”; in the data set with UPF1-HD WT (human) [1] (setting [3]), “binds more weakly”; in the data set with UPF1-HD WT (human) [1] (no ATP, range over the assays), “binds”. For “AGCTAGTTGTACGCACACTGCATTGCAATCGAATCGAA [38mer_5AF488]”, the binding result in the data set on UPF1-HD WT (human) [1] (1 mM AMP-PNP, 2 hr) was “binds more weakly”; in the data set on UPF1-HD WT (human) [1] (setting [3]) it was “binds more weakly”; in the data set with UPF1-HD WT (human) [1] (no ATP, range over the assays), “binds”. As for “GTGTGCGTACAACTAGCTGACAAAAACACAAAACAAAA / AGCTAGTTGTACGCACAC [20mer-fad + 18mer_3AF488 (20 nt 3' overhang)]”, the binding result with UPF1-HD WT (human) [2] is listed as “binds”.

For the sequence “GTGTGCGTACAACTAGCTGACAAAAACACAAAACAAAAGACAAAAACACAAAACAAAA / AGCTAGTTGTACGCACAC [40mer-fad + 18mer_3AF488 (40 nt 3' overhang)]”, the binding result with UPF1-HD WT (human) [2] was “binds”. For “GTGTGCGTACAACTAGCTGACAAAAACACAAAACAAAAGACAAAAACACAAAACAAAAGACAAAAACACAAAACAAAA / AGCTAGTTGTACGCACAC [60mer-fad + 18mer_3AF488 (60 nt 3' overhang)]”, in the data set with UPF1-HD WT (human) [2], the binding result was “binds”. Consider “GTGTGCGTACAACTAGCTGACAAAAACACAAAACAAAAGACAAAAACACAAAACAAAAGACAAAAACACAAAACAAAAGACAAAAACACAAAACAAAA / AGCTAGTTGTACGCACAC [80mer-fad + 18mer_3AF488 (80 nt 3' overhang)]”, for which the binding result in the data set on UPF1-HD WT (human) [2] is listed as “binds”.
